In the assay the test system is L1210 leukemia ip in BDF1 mice, survival T/C. The assay is described as follows: NCI In Vivo Anticancer Drug Screen. Data for tumor model L1210 Leukemia (intraperitoneal) in B6D2F1 (BDF1) mice. The conditions noted are these: T/C endpoint: mean survival time, higher T/C = longer survival.
Where [1] appears, read: dose: 400.0 mg/kg/injection, schedule: Q01DX001 (ip), vehicle: carboxymethylcellulose (CMC).
Where [2] appears, read: dose: 200.0 mg/kg/injection, schedule: Q01DX001 (ip), vehicle: saline.
[3] abbreviates: dose: 400.0 mg/kg/injection, schedule: Q01DX001 (ip), vehicle: saline.
The mark [4] stands for this setting: dose: 400.0 mg/kg/injection, schedule: Q04DX003 (ip), vehicle: saline with Tween-80.
Setting [5] is: dose: 200.0 mg/kg/injection, schedule: Q04DX003 (ip), vehicle: saline with Tween-80.
Setting [6] is: dose: 300.0 mg/kg/injection, schedule: Q01DX001 (ip), vehicle: saline.
Setting [7] is: dose: 200.0 mg/kg/injection, schedule: Q04DX002 (ip), vehicle: saline.
Where [8] appears, read: dose: 400.0 mg/kg/injection, schedule: Q04DX002 (ip), vehicle: saline.

The list does not hold the whole screen: it gathers tests that were run many times, whatever their T/C, doses with no T/C, and many T/C values between a quarter and a half above the control. Further doses and runs are listed elsewhere. T/C gives the treated animals as a percentage of the vehicle group. Some doses have a count of surviving animals in place of a T/C: the source files T/C as zero there, which appears to mark a toxic dose or a test without result, not a measured value. Some doses without a T/C left all or most animals alive at the check, yet need not have been tolerated: the source hardly ever lists a survival T/C far under the control, and the zero likely stands for such cases as well. Counts of survivors are from the toxicity check (mostly the fifth day) where no day follows; animals may have died later. Schedules are NCI's codes, read here as Q, the interval in days (D) or hours (H), X, the number of doses. Some schedules carry Z or #; the key to these is not given. Some entries hold several experiments; their values stand side by side, smallest first. Where survival is the endpoint, the PubChem record calls one and a half times the control and up active, and a quarter to a half above the control has no call in these data; cut-offs in other NCI protocols can differ. Some T/C values carry the count of animals alive at the toxicity check (mostly the fifth day); without a count, all were alive then.

Regarding `CNC(=O)NC1ON=C(c2ccccc2)C1C(=O)NC` (stereo not drawn), the survivor count (dose: 400.0 mg/kg/injection, schedule: Q01DX001 (ip), vehicle: saline with Tween-80) is 3 of 6.
On to `CN=C(NCCCN1CCOCC1)c1ccc(NC(=O)c2ccc(C(=O)Nc3ccc(C(=NC)NCCCN4CCOCC4)cc3)cc2)cc1`, for which, where the note is “dose: 50.0 mg/kg/injection, schedule: Q01DX Z (ip), vehicle: water”, the T/C was 137 % of control [4 of 6 alive]. Also, the survivor count (dose: 100.0 mg/kg/injection, schedule: Q01DX Z (ip), vehicle: water) is 0 of 6.
As to `CC12NC(=O)NC1(C)NC(=O)N2` (stereo not drawn), the survivor count (dose: 400.0 mg/kg/injection, schedule: Q01DX009 (ip), vehicle: saline) is 1 of 6.
As to `O=NN(CCCl)C(=O)Nc1ccc(Cl)c(Cl)c1`, the T/C was 127 % of control (dose: 12.0 mg/kg/injection, schedule: Q01DX009 (ip), vehicle: carboxymethylcellulose (CMC)); 137 % of control (dose: 17.0 mg/kg/injection, schedule: Q01DX009 (ip), vehicle: carboxymethylcellulose (CMC)); 143 % of control (dose: 17.0 mg/kg/injection, schedule: Q01DX015 (ip), vehicle: carboxymethylcellulose (CMC)); 143 % of control (dose: 88.0 mg/kg/injection, schedule: Q01DX001 (ip), vehicle: carboxymethylcellulose (CMC)); 140 % of control (dose: 133.0 mg/kg/injection, schedule: Q01DX001 (ip), vehicle: carboxymethylcellulose (CMC)); 143 % of control (dose: 200.0 mg/kg/injection, schedule: Q01DX001 (ip), vehicle: carboxymethylcellulose (CMC)). Under setting [1], the T/C is 131 % of control. Besides, the survivor count reads like this: (dose: 58.0 mg/kg/injection, schedule: Q01DX015 (ip), vehicle: carboxymethylcellulose (CMC)) 6 of 6; (dose: 88.0 mg/kg/injection, schedule: Q01DX015 (ip), vehicle: carboxymethylcellulose (CMC)) 4 of 6; (dose: 133.0 mg/kg/injection, schedule: Q01DX015 (ip), vehicle: carboxymethylcellulose (CMC)) 2 of 6; (dose: 200.0 mg/kg/injection, schedule: Q01DX015 (ip), vehicle: carboxymethylcellulose (CMC)) 0 of 6.
On to `COc1cc(O)c2c(c1)C(=O)C1=C(C2=O)C(O)[C@H](O)[C@](C)(O)[C@H]1O` (stereo partly drawn), for which the survivor count by setting is: (dose: 100.0 mg/kg/injection, schedule: Q01DX009 (ip), vehicle: Klucel (hydroxypropylcellulose) (HPC)) 0 of 6; (dose: 200.0 mg/kg/injection, schedule: Q01DX009 (ip), vehicle: Klucel (hydroxypropylcellulose) (HPC)) 0 of 6; (dose: 400.0 mg/kg/injection, schedule: Q01DX009 (ip), vehicle: Klucel (hydroxypropylcellulose) (HPC)) 0 of 6.
For `Cc1ncc(N)c2c1OC(C)(C)OC2`, the survivor count is recorded as 1 of 4 (dose: 100.0 mg/kg/injection, schedule: Q01DX001 (ip), vehicle: saline); 1 of 4 under setting [2]; 0 of 4 under setting [3].
On to `c1cnc2c3c(ccc2c1)CN(C12CC4CC(CC(C4)C1)C2)CO3`, for which the survivor count under setting [4] is 0 of 6.
For the compound `Cc1cnc2no[n+]([O-])c2c1`, for the setting “dose: 400.0 mg/kg/injection, schedule: Q04DX003 (ip), vehicle: Klucel (hydroxypropylcellulose) (HPC)”, the survivor count is reported as 0 of 6.
For the compound `COC(=O)c1ccc(N2C(=O)C=CC2=O)cc1`, the survivor count by setting is: (dose: 100.0 mg/kg/injection, schedule: Q04DX003 (ip), vehicle: saline with Tween-80) 1 of 6; under setting [5], 0 of 6; under setting [4], 0 of 6.
Take `O=C1C(=O)c2ccccc2C(O)=C1C(CCc1ccccc1)C1=C(O)c2ccccc2C(=O)C1=O`: the survivor count is 1 of 6 (dose: 150.0 mg/kg/injection, schedule: Q01DX001 (ip), vehicle: carboxymethylcellulose (CMC)); 0 of 6 (dose: 300.0 mg/kg/injection, schedule: Q01DX001 (ip), vehicle: carboxymethylcellulose (CMC)); 2 of 6 under setting [6].
For the compound `NC(CS)=NCCc1nc2ccccc2[nH]1`, the survivor count is 0 of 3 under setting [7] and 1 of 3 under setting [8].
Consider `OC/C=C\C1(O)CCCCC1`, for which the survivor count under setting [6] is on record as 0 of 6.
Turning to `N/C(=N/N=C/c1ccncc1)N/N=C\c1ccncc1`, the survivor count (dose: 15.0 mg/kg/injection, schedule: Q01DX Z (ip), vehicle: carboxymethylcellulose (CMC)) is reported as 6 of 6 and the survivor count (dose: 960.0 mg/kg/injection, schedule: Q01DX Z (oral), vehicle: carboxymethylcellulose (CMC)) is given as 0 of 6.
Regarding `O=C1C=CC(=O)N1c1ccc2c(c1)Cc1ccccc1-2`, the survivor count by setting is: under setting [5], 0 of 6; under setting [4], 0 of 6.
As for `CC1CC(NCCO)CC(C)(C)C1` (stereo not drawn), where the note is “dose: 300.0 mg/kg/injection, schedule: Q01DX001 (ip), vehicle: acid diluted with saline”, the survivor count is listed as 0 of 6.
Turning to `NC(N)=N/N=C/c1ccc([N+](=O)[O-])cc1`, the survivor count reads like this: (dose: 120.0 mg/kg/injection, schedule: Q01DX Z (ip), vehicle: saline) 3 of 6; (dose: 240.0 mg/kg/injection, schedule: Q01DX Z (oral), vehicle: other) 4 of 6.
`CC[N+](CC)(CC)CCCNC(=O)C12CC3CC(CC(C3)C1)C2`: the survivor count runs as follows: (dose: 100.0 mg/kg/injection, schedule: Q04DX002 (ip), vehicle: saline) 0 of 3 and 1 of 3; under setting [7], 0 of 3; under setting [8], 0 of 3.
Turning to `CC(=O)Nc1cc(F)c([N+](=O)[O-])cc1[N+](=O)[O-]`, the survivor count is 4 of 6 (dose: 20.0 mg/kg/injection, schedule: Q01DX015 (ip), vehicle: carboxymethylcellulose (CMC)); 5 of 6 (dose: 25.0 mg/kg/injection, schedule: Q04DX003 (ip), vehicle: saline); 2 of 6 (dose: 40.0 mg/kg/injection, schedule: Q01DX009 (ip), vehicle: saline with Tween-80); 3 of 6 (dose: 50.0 mg/kg/injection, schedule: Q04DX003 (ip), vehicle: saline); 5 of 6 (dose: 100.0 mg/kg/injection, schedule: Q04DX003 (ip), vehicle: saline); 2 of 4 under setting [2]. Moreover, the survivor count under setting [3] is recorded as 2 of 4.
Take `CC(=O)N(c1ccccc1)c1ccc([N+](=O)[O-])cc1[N+](=O)[O-]`: the T/C under setting [1] was 132 % of control.
On to `CC1(C)Cc2c(OC(N)=O)cccc2O1`, for which the survivor count by setting is: (dose: 100.0 mg/kg/injection, schedule: Q01DX001 (ip), vehicle: Klucel (hydroxypropylcellulose) (HPC)) 0 of 6 and 2 of 6; (dose: 200.0 mg/kg/injection, schedule: Q01DX001 (ip), vehicle: Klucel (hydroxypropylcellulose) (HPC)) 0 of 6; (dose: 400.0 mg/kg/injection, schedule: Q01DX001 (ip), vehicle: Klucel (hydroxypropylcellulose) (HPC)) 0 of 6.

For the origin of these results see PubChem BioAssay AID248 (DTP/NCI, 2004).
